In experiment [1] the target is T1, C-reactive protein (CRP) (human) (UniProt P02741).
T1 sequence: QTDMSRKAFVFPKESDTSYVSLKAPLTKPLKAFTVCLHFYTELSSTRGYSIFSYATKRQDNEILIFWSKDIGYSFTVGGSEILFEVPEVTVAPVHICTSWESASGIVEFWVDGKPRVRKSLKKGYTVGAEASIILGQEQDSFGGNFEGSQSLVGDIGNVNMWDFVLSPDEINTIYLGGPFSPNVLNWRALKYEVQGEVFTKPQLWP
Put plainly: pull-down; purified CRP (40 µg/ml; 100 µg/ml in Fig. 1b) or vehicle added to human plasma (hirudin) or serum, incubated with MSU crystals at 37 °C; crystals washed with urate-saturated HBSS (Ca2+, Mg2+); bound proteins eluted in SDS buffer; Western blot; only the target purified.

Experiment [2] concerns the target T1, C-reactive protein (CRP) (human). Kind of experiment: pull-down; purified CRP (40 µg/ml) or vehicle added to human plasma of three donors, incubated with phosphorylcholine-agarose (PC-agarose) at 37 °C; washed with HBSS (Ca2+, Mg2+); bound proteins eluted in SDS buffer; Western blot; only the target purified. For orientation: A western blot detects proteins with antibodies after separation by electrophoresis.

These are yes or no findings as the source states them, for the method shown. In cells and extracts the contact can be indirect. A result given as binding can be weak or reduced; the word gives no strength.

Consider “complement component C1r (human (endogenous in serum and plasma)) (enzyme)”, for which the binding entry in experiment [1] and in experiment [2] was “binds” in each case.

As to “complement component C1s (human (endogenous in serum and plasma)) (enzyme)”, the binding result in experiment [1] and in experiment [2] was “binds” in each case.

These data come from paper PMC7156728.
